# What was measured:
# [1] = tested on: human breast carcinoma cells (MCF-7 cell line); details: within 3 weeks; morphine 10, 20, 30 mg/kg daily in week 1, 2, 3; combination with naloxone 1, 2, 3 mg/kg; s.c. MCF-7 in NMRI nu/nu mice
# Protocol: In an established pharmacological animal model, naked mice (NMRI-nu/nu; Harlan, Borchen) received a subcutaneous injection containing a cell suspension (5×10^6 cells in 300 μl per mouse) of human breast carcinoma cells (MCF-7 cell line).
# A total of 5×10^6 cells were injected subcutaneously per mouse. […] The animals were treated with 10 mg/kg β-estradiol valerate (i.m.) one day before and 7 and 14 days after the injection of tumor cells. […] Tumor volume=(long diameter×short diameter^2)/2.
# [2] = plasma of the treated naked mice (not shown)
smiles,measurement,setting,value
CN1CC[C@]23c4c5ccc(O)c4O[C@H]2[C@@H](O)C=C[C@H]3[C@H]1C5 [morphine],tumor growth compared to the control group,[1],approx. one third
same,morphine concentrations in the plasma,[2],corresponded to the plasma levels of patients on chronic oral administration of morphine for pain therapy

# — patent US20050043280A1, “Use of active ingredients having a mu-opioid receptor agonist action and an opiod receptor antognist action, as combination drugs for the treatment of cancer” (priority 2001, published 2005)
